Our source for the binding values is PMC12199419.

Amino acid sequences for entries named in this document (tags omitted).
UniProt P46938: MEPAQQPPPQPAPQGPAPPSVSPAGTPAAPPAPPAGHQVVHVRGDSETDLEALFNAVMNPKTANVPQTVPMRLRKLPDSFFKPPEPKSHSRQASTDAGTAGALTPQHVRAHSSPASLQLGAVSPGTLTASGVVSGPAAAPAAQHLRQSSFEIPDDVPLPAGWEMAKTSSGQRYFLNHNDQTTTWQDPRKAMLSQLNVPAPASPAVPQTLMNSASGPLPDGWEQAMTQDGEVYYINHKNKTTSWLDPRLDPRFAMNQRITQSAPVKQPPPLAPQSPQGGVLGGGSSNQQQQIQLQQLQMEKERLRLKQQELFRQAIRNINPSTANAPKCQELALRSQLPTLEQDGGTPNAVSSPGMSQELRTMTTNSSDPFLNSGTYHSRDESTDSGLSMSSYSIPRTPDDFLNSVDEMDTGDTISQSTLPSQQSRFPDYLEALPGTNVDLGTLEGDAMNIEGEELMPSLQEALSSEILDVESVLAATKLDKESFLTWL
UniProt Q8K1S5: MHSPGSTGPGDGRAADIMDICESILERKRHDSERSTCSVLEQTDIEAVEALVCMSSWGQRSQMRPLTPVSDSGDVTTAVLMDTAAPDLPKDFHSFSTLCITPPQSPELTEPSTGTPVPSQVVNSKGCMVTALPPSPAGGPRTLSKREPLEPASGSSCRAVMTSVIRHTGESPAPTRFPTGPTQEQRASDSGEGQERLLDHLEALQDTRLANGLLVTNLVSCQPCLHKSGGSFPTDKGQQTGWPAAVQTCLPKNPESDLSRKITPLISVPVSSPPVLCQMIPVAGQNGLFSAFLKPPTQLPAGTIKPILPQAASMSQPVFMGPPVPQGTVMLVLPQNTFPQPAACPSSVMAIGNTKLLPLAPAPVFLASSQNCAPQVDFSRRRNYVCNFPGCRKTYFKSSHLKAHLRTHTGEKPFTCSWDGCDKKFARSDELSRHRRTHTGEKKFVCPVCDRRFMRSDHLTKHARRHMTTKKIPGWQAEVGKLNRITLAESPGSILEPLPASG

Results are given in words; binding and its absence hold for the method and conditions named. In cells and extracts the contact can be indirect. Some binding calls cover weakened binding; strength is not graded here.

The target in test [1] is YAP1 (UniProt P46938). Briefly: co-IP; cell lysates with control or specific antibodies (anti-KLF11, anti-PPARα, anti-YAP1, anti-IgG) for 12 h at 4 °C, protein A/G agarose beads, SDS-PAGE and immunoblotting; the section heading says that wogonin promoted the interaction. On the technique in general: Immunoblotting shows a protein as a band on a membrane.
The target of test [2] is T1, PPARα (UniProt P23204).
T1 sequence: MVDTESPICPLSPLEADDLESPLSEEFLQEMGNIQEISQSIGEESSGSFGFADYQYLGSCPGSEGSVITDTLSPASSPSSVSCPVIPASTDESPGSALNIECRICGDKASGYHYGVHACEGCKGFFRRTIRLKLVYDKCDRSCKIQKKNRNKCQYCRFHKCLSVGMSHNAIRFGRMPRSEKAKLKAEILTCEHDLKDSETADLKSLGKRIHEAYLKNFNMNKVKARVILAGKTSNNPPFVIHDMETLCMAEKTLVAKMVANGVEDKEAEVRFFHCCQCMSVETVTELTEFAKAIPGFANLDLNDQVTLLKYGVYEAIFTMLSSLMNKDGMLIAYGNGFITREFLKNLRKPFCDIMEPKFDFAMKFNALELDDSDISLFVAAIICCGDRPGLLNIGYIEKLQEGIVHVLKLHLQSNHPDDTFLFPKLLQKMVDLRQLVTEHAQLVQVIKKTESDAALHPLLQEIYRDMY
The test is described as above.

For KLF11 (from UniProt Q8K1S5 1-502), the binding entry in test [1] and in test [2] was “binds” each time.

As for YAP1 (from UniProt P46938 1-488), the binding result in test [2] was “binds”.
